Assay results published in patent US9821173B2, “Anti-cancer agents and methods of use” (Case Western Reserve University, priority 2013, dated 2017).

Tests used:
CEM-C7 = assay: Cell proliferation / cytotoxicity assay; assay type: cell-based; details: for Selectivity Factor: SF = IC50 Leukemia (CEMC7)/IC50 Adherent cells
Description: HeLa, MCF-7, HCT-116, and CEM-C7 were obtained from the American Type Culture Collection (Manassas, Va., USA). All adherent cell lines were maintained in Dulbecco's modified Eagle's medium (Mediatech) with 100 U/ml penicillin (Invitrogen), 100 μg/ml streptomycin (Invitrogen), 0.25 μg/ml amphotericin B (Invitrogen), and 10% fetal bovine serum (USA Scientific) and incubated at 37° C. with 5% CO2. CEM cells were maintained in RPMI-1640 media supplemented with 100 U/ml penicillin, 100 μg/ml streptomycin, 0.25 μg/ml amphotericin B, and 10% fetal bovine serum and incubated at 37° C. with […].
Cells were plated at a density of 7,000-13,000/well in 200 μl of media overnight in a 96-well plate. Each (phosphine)gold(I)-indole was added to wells in a dose-dependent manner (0.01-100 μM). Cells were treated with compounds for variable time periods (8-48 hours). With adherent cell lines, medium was removed from the wells and then 100 μl of fresh medium was added into each well followed by the addition of 20 μl of cell titer-blue reagent (Promega). Cells were incubated with reagent for 1-4 hrs and the optical density of samples was read at 560 nm using a microplate reader. The background absorbance of dye with media was subtracted from each sample. Cell viability was then normalized against cells treated with DMSO. IC50 values were obtained using a fit of the data to Equation 1: Y=100%/[1+(IC50/Inhibitor)] (1)
where y is the fraction of viable cells, IC50 is the concentration of inhibitor that inhibits 50% cell growth, and Inhibitor is the concentration of compound tested.
The cellular effects of these (phosphine)gold(I) indoles were tested against several cancer cell lines including HeLa (cervical cancer), MCF-7 (breast cancer), HCT-116 (colon cancer), and CEM-C7 (leukemia). The dose-dependency of each modified indole on cell viability was assessed using a cell-titer blue assay as previously described. In these experiments, cells were exposed to variable concentrations of each (phosphine)gold(I) indole (0.01-100 μM) for up to 48 hours and then assessed for viability.
Defining this mechanism of cell death is important as necrosis can cause various side-effects including septic shock and kidney failure that can obviously compromise patient health.

panel of 64 kinases = assay: Kinase inhibition screening, whole panel (Luceome Biotechnologies); assay type: biochemical, human; details: 10˜M of compound

Compound | fold lower LD50 than that measured for compound 3 and 4 (CEM-C7; CEM-C7) | Selectivity Factor (CEM-C7) | number of kinases showing greater than 20% inhibition (panel of 64 kinases)
[Au+].[Br-].c1ccc(P(c2ccccc2)c2ccccc2)cc1 [BrAuPPh3, reference compound] | 40-80 fold |  | 
CC(C)(C)OC(=O)n1ccc2c[c]([Au-][P+](c3ccccc3)(c3ccccc3)c3ccccc3)ccc21 [Compound 3, 5-{Triphenylphosphine aurate(I)}-tert-butyl1H-indole-1-carboxylate] |  | 1.2-8.0 | six
CC(C)(C)OC(=O)n1ccc2c[c]([Au-][P+](C3CCCCC3)(C3CCCCC3)C3CCCCC3)ccc21 [Compound 4, 5-{Tricyclohexylphosphine aurate(I)}-tert-butyl1H-indole-1-carboxylate] |  | 0.3-0.6 | 18
CC(C)(C)OC(=O)n1ccc2c[c]([Au-][P+](c3ccccc3-c3ccccc3)(C3CCCCC3)C3CCCCC3)ccc21 [Compound 5, 5-{[1,1′-biphenyl]-2-yldicyclohexylphosphine aurate(I)}-tert-butyl H-indole-1-carboxylate] |  | 0.6-0.9 | 
CC(C)(C)C(=O)OCn1ccc2c[c]([Au-][P+](c3ccccc3-c3ccccc3)(C3CCCCC3)C3CCCCC3)ccc21 [Compound 6, 5-{[1,1′-biphenyl]-2-yldicyclohexylphosphine aurate(I)}-(1H-indol-1-yl)methyl pivalate] |  | 0.2-0.6 | 
Cn1ccc2c[c]([Au-][P+](c3ccccc3-c3ccccc3)(C3CCCCC3)C3CCCCC3)ccc21 [Compound 7, 5-{[1,1′-biphenyl]-2-yldicyclohexylphosphine aurate(I)}-1-methyl-1H-indole] |  | 0.4-3.8 | 
